The results in this text go back to the supplement of paper PMC12823440, “Inhibitors supercharge kinase turnover through native proteolytic circuits” (Nature, 2025).

Structures can show the parent of a compound that is named as a salt. The list shows a part of the results. Hit calls seldom repeat between salt and free forms of one compound.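 Kinases, fused to nanoluciferase, were expressed in K562 cells; luminescence was measured every 4 h from 2 to 18 h as percent of control (DMSO = 100%, positive control = 0%). A time point is decreased if signal falls significantly (2 sigma). Hits were called by the authors by a rule that is not shown; the count of time points alone does not decide it.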

This test concerns the target EGFR_G719S_T790M (UniProt P00533). As to the kind of experiment: number of time points (of 5) at which kinase-Nluc abundance scored as decreased, DMSO-normalised (count); higher = more persistent destabilization. The note with it: K562; 2-18 h.
For the molecule `COc1cc(S(C)(=O)=O)ccc1Nc1nc2ccc(-c3ccc(NC(=O)[C@H](C)c4ccc(F)cc4)cc3)cn2n1` [Empesertib] (10 µM), the “number of time points” value was found to be 0.

As to `CO[C@H]1C[C@@H]2CC[C@@H](C)[C@@](O)(O2)C(=O)C(=O)N2CCCC[C@H]2C(=O)O[C@H]([C@H](C)C[C@@H]2CC[C@@H](O)[C@H](OC)C2)CC(=O)[C@H](C)/C=C(\C)[C@@H](O)[C@@H](OC)C(=O)[C@H](C)C[C@H](C)/C=C/C=C/C=C/1C` [Rapamycin] (10 µM), the “number of time points” value was determined as 0.

As for `COc1ccc(Cl)cc1NC(=O)Nc1cc(C)nc2ccccc12` (2.5 µM), the “number of time points” value stood at 0.

`CNc1nc(Nc2cnn(C3CCN(C4COC4)CC3F)c2Cl)ncc1C(F)(F)F` (stereo not given) (10 µM): the “number of time points” value turned out to be 0.

For `Cc1ccc2nc(NC(=O)CSc3nc4c(c(=O)n3-c3ccccc3)SCC4)sc2c1` (2 µM), the “number of time points” value came out at 0.

As to `Cc1noc(C)c1-c1ccc(-c2cc(C(N)=O)c(NC(N)=O)s2)c(O[C@H]2CCNC2)c1` (10 µM), the “number of time points” value is 0.

For the molecule `Fc1ccc(-c2nc(-c3c(F)cccc3F)[nH]c2-c2ccncc2)cc1` (10 µM), the “number of time points” value came to 0.

Take `C=CC(=O)Nc1ccc(CN(C(=O)Nc2c(Cl)c(OC)cc(OC)c2Cl)c2cc(Nc3ccc(N4CCN(C)CC4)cc3)ncn2)cc1` (10 µM): the “number of time points” value was found to be 0.

In the case of `CCN(CC)c1ccc2cc(C(=O)N3CCN(C(=O)C4=Cc5c(Br)cccc5S4(=O)=O)CC3)c(=O)oc2c1` (2 µM), the “number of time points” value was found to be 0.

In the case of `CN1CCN(c2ccc(Nc3ncc4nc(Nc5ccccc5)n([C@@H]5CCN(S(=O)(=O)C6CC6)C5)c4n3)cc2)CC1` (2.5 µM), the “number of time points” value came out at 0.

In the case of `COCCOc1ccc(-c2cn(-c3ccccc3)c3nc[nH]c(=O)c23)cc1` (10 µM), the “number of time points” value was determined as 0.

Regarding `CC(C)CC1(O)CCN(C(=O)c2ccc(NS(=O)(=O)c3cccc4nccnc34)cc2)CC1` (10 µM), the “number of time points” value was found to be 0.

Consider `Cc1cc(Nc2cc(Cl)nc(Oc3ccc([N+](=O)[O-])cc3)n2)n[nH]1` [Autophinib] (2.5 µM), for which the “number of time points” value was 0.

Turning to `O=C(NCCO)c1ccc2c(c1)nc(Nc1cccc(Cl)c1)c1ccncc12` [CK2 inhibitor 2] (10 µM), the “number of time points” value was 0.

Turning to `COc1ccc(C2CC(c3ccccc3)=NN2c2ccc(S(N)(=O)=O)cc2)cc1` (stereo not given) (10 µM), the “number of time points” value came to 0.

`C[C@@H]1O[C@@H](O[C@H]2[C@H](Oc3cc(O)c4c(=O)cc(-c5ccc(O)cc5)oc4c3)O[C@H](CO)[C@@H](O)[C@@H]2O)[C@H](O)[C@H](O)[C@H]1O` [Rhoifolin] (10 µM): the “number of time points” value came out at 0.

With `O=[N+]([O-])c1cc(C(F)(F)F)cc([N+](=O)[O-])c1NNC(=S)Nc1ccc(F)cc1` (10 µM), the “number of time points” value amounted to 0.

Take `CCc1cc(O)c(F)cc1-c1ccc2c(-c3nc4c([nH]3)CN(C3CCN(C)CC3)CC4)n[nH]c2c1` [JAK-IN-5 (hydrochloride)] (2 µM): the “number of time points” value is 0.

For `O=C(Nc1cccnc1)c1cc(C(=O)c2c(F)cccc2Br)c[nH]1` (10 µM), the “number of time points” value stood at 0.

For `COc1ccc2c(c1O)OC(C)(C)c1c-2ccc2c1C(=O)N(c1ccc(C(=O)c3ccccc3)cc1)C2=O` [Ampkinone] (10 µM), the “number of time points” value stood at 0.

In the case of `CC1CCc2nc(N)c(C#N)c(-c3cccnc3)c2C1` (stereo not given) (10 µM), the “number of time points” value was determined as 0.

Consider `COc1cc(F)c(F)c(Nc2ccc(I)cc2F)c1NS(=O)(=O)C1(C[C@H](O)CO)CC1` [Refametinib] (10 µM), for which the “number of time points” value is 0.

On to `Cn1nccc1Nc1nccc(-c2cc3c(s2)C(C)(C)N(CCN2CCOCC2)C3=O)n1` (10 µM), for which the “number of time points” value stood at 0.

`Cc1ccc(-c2c(C(=O)CCl)n(CCCO)c3ncnc(N)c23)cc1` (10 µM): the “number of time points” value is 0.

As to `N[C@H](Cc1c[nH]c2ccccc12)C(=O)N/N=C/c1ccc2nccnc2c1` [Rhosin (hydrochloride)] (10 µM), the “number of time points” value was 0.

Take `CNCc1ccccc1-c1csc([C@@H](C)Nc2nc(C)nc3cc(OC)c(OC)cc23)c1` (2.5 µM): the “number of time points” value came to 3.

Turning to `Cn1cnc(-c2cc3nccc(Oc4ccc(NC(=S)NC(=O)Cc5ccccc5)cc4F)c3s2)c1` [MGCD-265 analog] (10 µM), the “number of time points” value is 0.

Consider `C=C1C(=O)O[C@@H]2C[C@@]3(C)CCC[C@H](C)C3=C[C@H]12` [Alantolactone] (10 µM), for which the “number of time points” value came to 0.

`O=C(Nc1ccc(F)cc1F)[C@H](NC(=S)Nc1cc(C(F)(F)F)cc(C(F)(F)F)c1)c1ccccc1` (2.5 µM): the “number of time points” value worked out at 0.

Take `Fc1ccc(-c2nc(-c3ccccc3F)[nH]c2-c2ccncc2)cc1` (2.5 µM): the “number of time points” value is 0.
